Results reported in US20240043552A1 (Eli Lilly, published 2024).
Results are given in words; binding and its absence hold for the method and conditions named. Some binding calls cover weakened binding; strength is not graded here.

Protein sequences, listed by entry. Tags and fused reporters are not part of them. Residues count along the entry.
UniProt P36941, residues 28-227: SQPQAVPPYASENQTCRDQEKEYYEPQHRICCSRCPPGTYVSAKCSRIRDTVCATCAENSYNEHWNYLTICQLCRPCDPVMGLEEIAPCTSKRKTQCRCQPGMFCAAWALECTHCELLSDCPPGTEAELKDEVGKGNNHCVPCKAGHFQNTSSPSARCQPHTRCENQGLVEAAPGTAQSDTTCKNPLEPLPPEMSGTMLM

The binders below were run against T1, hLTβR-Fc-biotin (human, UniProt P36941 28-227, limits assumed, biotin-labelled with EZ-LINK Sulfo-NHS-LC-Biotin) (assay: dual antigen sandwich ELISA).
T1 construct: Bought (R&D systems); Detection antigen of the sandwich; also called LTPR (as printed once); not shown: Fc of the bought fusion protein

| binding | Binder |
| --- | --- |
| binds | MetMAb × BHA10 IgG BsAb, CH1/Cκ design 14.3.1.1 (bispecific antibody, Human IgG1; also called MetMAb × BHA10 14.3.1.1) heavy 1: EVQLVESGGGLVQPGGSLRLSCAASGYTFTSYWLHWVRKAPGKGLEWVGMIDPSNSDTRFNPEFKDRFTISADTSKNTAYLQMNSLRAEDTAVYYCATYRSYVTPLDYWGQGTLVTVSSASTKGPSVFPLAPSSKSTSGGTAALGCLVADYFPEPVTVSWNSGALTSGVHTFPAVLQSSGLYSLASVVTVPSSSLGTQTYICNVNHKPSNTKVDKKVEPKSCDKTHTCPPCPAPELLGGPSVFLFPPKPKDTLMISRTPEVTCVVVDVSHEDPEVKFNWYVDGVEVHNAKTKPREEQYQSTYRVVSVLTVLHQDWLNGKEYKCKVSNKALPAPIEKTISKAKGQPREPQVYTLPPSREEMTDNQVSLTCLVKGFYPSDIAVEWESNGQPENNYKTTPPVLMSDGSFFLASKLTVDKSRWQQGNVFSCSVMHEALHNHYTQKSLSLSPG light 1: RIQMTQSPSSLSASVGDRVTITCKSSQSLLYTSSQKNYLAWYQDKPGKAPKLLIYWASTRESGVPSRFSGSGSGTDFTLTISSLQPEDFATYYCQQYYAYPWTFGQGTKVEIKRTVAAPSVFIFPPSDEQLKSGTARVVCLLNNFYPREAKVQWKVDNALQSGNSQESVTEQDSKDSTYSLISTLTLSKADYEKHKVYACEVTHQGLSSPVTKSFNRGEC heavy 2: QVQLVQSGAEVKKPGSSVKVSCKASGYTFTTYYLHWVRYAPGQGLEWMGWIYPGNVHAQYNEKFKGRVTITADKSTSTAYMELSSLRSEDTAVYYCARSWEGFPYWGRGTTVTVSSASTKGPSVFPLAPSSKSTSGGTAALGCLVKDYFPEPVTVSWNSGALTSGVHTFPAVLQSSGLYSLSSVVTVPSSSLGTQTYICNVNHKPSNTKVDEKVEPKSCDKTHTCPPCPAPELLGGPSVFLFPPKPKDTLMISRTPEVTCVVVDVSHEDPEVKFNWYVDGVEVHNAKTKPREEQYQSTYRVVSVLTVLHQDWLNGKEYKCKVSNKALPAPIEKTISKAKGQPRRPRVYTLPPSREEMTKNQVSLVCLVKGFYPSDIAVEWESNGQPENNYKTTPPVLDSDGSFFLYSVLTVDKSRWQQGNVFSCSVMHEALHNHYTQKSLSLSPG light 2: DIQMTQSPSSLSASVGDRVTITCKASQNVGINVAWYQRKPGDAPKSLISSASYRYSGVPSRFSGSGSGTDFTLTISSLQPEDFATYFCQQYDTYPFTFGQGTKVEIKRTVAAPSVFIFPPSDKQLKSGTASVVCLLNNFYPREAKVQWKVDNALQSGNSQESVTEQDSKDSTYSLSSTLTLSKADYEKHKVYACEVTHQGLSSPVTKSFNRGEC |
| binds | MetMAb × BHA10 IgG BsAb, CH1/Cκ design 14.3.1.2 (bispecific antibody, Human IgG1; also called MetMAb × BHA10 14.3.1.2) heavy 1: EVQLVESGGGLVQPGGSLRLSCAASGYTFTSYWLHWVRKAPGKGLEWVGMIDPSNSDTRFNPEFKDRFTISADTSKNTAYLQMNSLRAEDTAVYYCATYRSYVTPLDYWGQGTLVTVSSASTKGPSVFPLAPSSKSTSGGTAALGCLVADYFPEPVTVSWNSGALTSGVHTFPAVLQSSGLYSLGSVVTVPSSSLGTQTYICNVNHKPSNTKVDKKVEPKSCDKTHTCPPCPAPELLGGPSVFLFPPKPKDTLMISRTPEVTCVVVDVSHEDPEVKFNWYVDGVEVHNAKTKPREEQYQSTYRVVSVLTVLHQDWLNGKEYKCKVSNKALPAPIEKTISKAKGQPREPQVYTLPPSREEMTDNQVSLTCLVKGFYPSDIAVEWESNGQPENNYKTTPPVLMSDGSFFLASKLTVDKSRWQQGNVFSCSVMHEALHNHYTQKSLSLSPG light 1: RIQMTQSPSSLSASVGDRVTITCKSSQSLLYTSSQKNYLAWYQDKPGKAPKLLIYWASTRESGVPSRFSGSGSGTDFTLTISSLQPEDFATYYCQQYYAYPWTFGQGTKVEIKRTVAAPSVFIFPPSDEQLKSGTARVVCLLNNFYPREAKVQWKVDNALQSGNSQESVTEQDSKDSTYSLISTLTLSKADYEKHKVYACEVTHQGLSSPVTKSFNRGEC heavy 2: QVQLVQSGAEVKKPGSSVKVSCKASGYTFTTYYLHWVRYAPGQGLEWMGWIYPGNVHAQYNEKFKGRVTITADKSTSTAYMELSSLRSEDTAVYYCARSWEGFPYWGRGTTVTVSSASTKGPSVFPLAPSSKSTSGGTAALGCLVKDYFPEPVTVSWNSGALTSGVHTFPAVLQSSGLYSLSSVVTVPSSSLGTQTYICNVNHKPSNTKVDEKVEPKSCDKTHTCPPCPAPELLGGPSVFLFPPKPKDTLMISRTPEVTCVVVDVSHEDPEVKFNWYVDGVEVHNAKTKPREEQYQSTYRVVSVLTVLHQDWLNGKEYKCKVSNKALPAPIEKTISKAKGQPRRPRVYTLPPSREEMTKNQVSLVCLVKGFYPSDIAVEWESNGQPENNYKTTPPVLDSDGSFFLYSVLTVDKSRWQQGNVFSCSVMHEALHNHYTQKSLSLSPG light 2: DIQMTQSPSSLSASVGDRVTITCKASQNVGINVAWYQRKPGDAPKSLISSASYRYSGVPSRFSGSGSGTDFTLTISSLQPEDFATYFCQQYDTYPFTFGQGTKVEIKRTVAAPSVFIFPPSDKQLKSGTASVVCLLNNFYPREAKVQWKVDNALQSGNSQESVTEQDSKDSTYSLSSTLTLSKADYEKHKVYACEVTHQGLSSPVTKSFNRGEC |
| binds | Pertuzumab × BHA10 IgG BsAb, CH1/Cκ design 14.3.1.1 (bispecific antibody, Human IgG1; also called Pertuzumab × BHA10 14.3.1.1) heavy 1: EVQLVESGGGLVQPGGSLRLSCAASGFTFTDYTMDWVRKAPGKGLEWVADVNPNSGGSIYNQEFKGRFTLSVDRSKNTLYLQMNSLRAEDTAVYYCARNLGPSFYFDYWGQGTLVTVSSASTKGPSVFPLAPSSKSTSGGTAALGCLVADYFPEPVTVSWNSGALTSGVHTFPAVLQSSGLYSLASVVTVPSSSLGTQTYICNVNHKPSNTKVDKKVEPKSCDKTHTCPPCPAPELLGGPSVFLFPPKPKDTLMISRTPEVTCVVVDVSHEDPEVKFNWYVDGVEVHNAKTKPREEQYQSTYRVVSVLTVLHQDWLNGKEYKCKVSNKALPAPIEKTISKAKGQPREPQVYTLPPSREEMTDNQVSLTCLVKGFYPSDIAVEWESNGQPENNYKTTPPVLMSDGSFFLASKLTVDKSRWQQGNVFSCSVMHEALHNHYTQKSLSLSPG light 1: RIQMTQSPSSLSASVGDRVTITCKASQDVSIGVAWYQDKPGKAPKLLIYSASYRYTGVPSRFSGSGSGTDFTLTISSLQPEDFATYYCQQYYIYPYTFGQGTKVEIKRTVAAPSVFIFPPSDEQLKSGTARVVCLLNNFYPREAKVQWKVDNALQSGNSQESVTEQDSKDSTYSLISTLTLSKADYEKHKVYACEVTHQGLSSPVTKSFNRGEC heavy 2: QVQLVQSGAEVKKPGSSVKVSCKASGYTFTTYYLHWVRYAPGQGLEWMGWIYPGNVHAQYNEKFKGRVTITADKSTSTAYMELSSLRSEDTAVYYCARSWEGFPYWGRGTTVTVSSASTKGPSVFPLAPSSKSTSGGTAALGCLVKDYFPEPVTVSWNSGALTSGVHTFPAVLQSSGLYSLSSVVTVPSSSLGTQTYICNVNHKPSNTKVDEKVEPKSCDKTHTCPPCPAPELLGGPSVFLFPPKPKDTLMISRTPEVTCVVVDVSHEDPEVKFNWYVDGVEVHNAKTKPREEQYQSTYRVVSVLTVLHQDWLNGKEYKCKVSNKALPAPIEKTISKAKGQPRRPRVYTLPPSREEMTKNQVSLVCLVKGFYPSDIAVEWESNGQPENNYKTTPPVLDSDGSFFLYSVLTVDKSRWQQGNVFSCSVMHEALHNHYTQKSLSLSPG light 2: DIQMTQSPSSLSASVGDRVTITCKASQNVGINVAWYQRKPGDAPKSLISSASYRYSGVPSRFSGSGSGTDFTLTISSLQPEDFATYFCQQYDTYPFTFGQGTKVEIKRTVAAPSVFIFPPSDKQLKSGTASVVCLLNNFYPREAKVQWKVDNALQSGNSQESVTEQDSKDSTYSLSSTLTLSKADYEKHKVYACEVTHQGLSSPVTKSFNRGEC |
| binds | Pertuzumab × BHA10 IgG BsAb, CH1/Cκ design 14.3.1.2 (bispecific antibody, Human IgG1; also called Pertuzumab × BHA10 14.3.1.2) heavy 1: EVQLVESGGGLVQPGGSLRLSCAASGFTFTDYTMDWVRKAPGKGLEWVADVNPNSGGSIYNQEFKGRFTLSVDRSKNTLYLQMNSLRAEDTAVYYCARNLGPSFYFDYWGQGTLVTVSSASTKGPSVFPLAPSSKSTSGGTAALGCLVADYFPEPVTVSWNSGALTSGVHTFPAVLQSSGLYSLGSVVTVPSSSLGTQTYICNVNHKPSNTKVDKKVEPKSCDKTHTCPPCPAPELLGGPSVFLFPPKPKDTLMISRTPEVTCVVVDVSHEDPEVKFNWYVDGVEVHNAKTKPREEQYQSTYRVVSVLTVLHQDWLNGKEYKCKVSNKALPAPIEKTISKAKGQPREPQVYTLPPSREEMTDNQVSLTCLVKGFYPSDIAVEWESNGQPENNYKTTPPVLMSDGSFFLASKLTVDKSRWQQGNVFSCSVMHEALHNHYTQKSLSLSPG light 1: RIQMTQSPSSLSASVGDRVTITCKASQDVSIGVAWYQDKPGKAPKLLIYSASYRYTGVPSRFSGSGSGTDFTLTISSLQPEDFATYYCQQYYIYPYTFGQGTKVEIKRTVAAPSVFIFPPSDEQLKSGTARVVCLLNNFYPREAKVQWKVDNALQSGNSQESVTEQDSKDSTYSLISTLTLSKADYEKHKVYACEVTHQGLSSPVTKSFNRGEC heavy 2: QVQLVQSGAEVKKPGSSVKVSCKASGYTFTTYYLHWVRYAPGQGLEWMGWIYPGNVHAQYNEKFKGRVTITADKSTSTAYMELSSLRSEDTAVYYCARSWEGFPYWGRGTTVTVSSASTKGPSVFPLAPSSKSTSGGTAALGCLVKDYFPEPVTVSWNSGALTSGVHTFPAVLQSSGLYSLSSVVTVPSSSLGTQTYICNVNHKPSNTKVDEKVEPKSCDKTHTCPPCPAPELLGGPSVFLFPPKPKDTLMISRTPEVTCVVVDVSHEDPEVKFNWYVDGVEVHNAKTKPREEQYQSTYRVVSVLTVLHQDWLNGKEYKCKVSNKALPAPIEKTISKAKGQPRRPRVYTLPPSREEMTKNQVSLVCLVKGFYPSDIAVEWESNGQPENNYKTTPPVLDSDGSFFLYSVLTVDKSRWQQGNVFSCSVMHEALHNHYTQKSLSLSPG light 2: DIQMTQSPSSLSASVGDRVTITCKASQNVGINVAWYQRKPGDAPKSLISSASYRYSGVPSRFSGSGSGTDFTLTISSLQPEDFATYFCQQYDTYPFTFGQGTKVEIKRTVAAPSVFIFPPSDKQLKSGTASVVCLLNNFYPREAKVQWKVDNALQSGNSQESVTEQDSKDSTYSLSSTLTLSKADYEKHKVYACEVTHQGLSSPVTKSFNRGEC |
